In PubChem BioAssay AID1671190 (National Center for Advancing Translational Sciences (NCATS), 2021):
“And” between values parts separate entries of the source, which are not always exact repeats. Equal values may be shown once. About 6,100 (1.1%) of roughly 580,000 compounds were called active. The inconclusive results got no clear call from the source; some entries with a clear call stand among them for comparison. The call rests on the fitted dose curve; in most records, active means well fitted inhibition curve with a large enough effect; inconclusive means small, poorly fitted or top-dose-only effect, or another doubt; inactive means no such curve, though single readings can be large or run the other way. Potencies beside an inconclusive call are fits to weak or partial responses and may not hold up.

Protein sequences, listed by entry. Tags and fused reporters are not part of them.
UniProt P18054, whole entry, looked up: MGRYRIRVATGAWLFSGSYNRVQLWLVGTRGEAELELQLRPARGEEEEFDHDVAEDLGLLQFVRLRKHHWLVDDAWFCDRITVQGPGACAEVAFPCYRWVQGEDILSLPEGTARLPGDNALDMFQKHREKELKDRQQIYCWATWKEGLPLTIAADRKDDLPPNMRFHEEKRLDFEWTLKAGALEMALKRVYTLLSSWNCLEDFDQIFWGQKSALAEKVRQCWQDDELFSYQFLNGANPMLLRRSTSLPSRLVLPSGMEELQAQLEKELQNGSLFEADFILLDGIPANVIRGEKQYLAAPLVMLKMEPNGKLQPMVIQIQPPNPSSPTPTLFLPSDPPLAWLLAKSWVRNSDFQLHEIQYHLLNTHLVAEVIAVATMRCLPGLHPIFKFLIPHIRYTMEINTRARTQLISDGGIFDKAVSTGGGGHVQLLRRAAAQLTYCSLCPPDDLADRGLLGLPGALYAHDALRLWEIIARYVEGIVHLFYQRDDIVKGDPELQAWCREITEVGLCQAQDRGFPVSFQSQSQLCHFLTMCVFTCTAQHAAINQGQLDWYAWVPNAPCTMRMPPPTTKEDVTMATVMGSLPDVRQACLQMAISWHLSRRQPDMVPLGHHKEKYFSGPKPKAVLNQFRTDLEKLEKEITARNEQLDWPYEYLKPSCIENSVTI

molecular target: Polyunsaturated fatty acid lipoxygenase ALOX12 (Homo sapiens) (UniProt P18054); experiment: Primary qHTS assay for inhibitors of human arachidonate 12S-lipoxygenase (ALOX12): Round 2; conditions: purified 12hLO, xylenol orange hydroperoxide absorbance; activity change, negative = inhibition: at 108 µM (top of the series) unless noted
Outline: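 Purified human 12hLO at 150 nM in 25 mM Hepes, 0.01% Triton X-100, pH 7.0, preincubated 15 min at room temperature with compound. Reaction started with 40 uM arachidonic acid, 30 min at room temperature. Hydroperoxide measured by Fe-xylenol orange, 573/405 nm absorbance ratio.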
On the % scale 0 is the no-effect control and ±100 the full control effect; potency means the concentration at half of the fitted maximal effect.

Row | Structure (SMILES) | Potency | activity change, negative = inhibition
1 | CCn1cc(S(=O)(=O)N2CCCCC2c2nc(CCOc3ccc(F)cc3)no2)cn1 (configuration not stated) | inactive | 
2 | CC(C)(C)OC(=O)N1CC(Nc2ccccc2O)C1 | inconclusive: 63.1 µM [inhibitor, partial curve, poor fit] | 
3 | Cc1cc(C[C@@H]2COC[C@@H]2NC(=O)c2ccc3nc(C)[nH]c3c2)on1 | inconclusive: 3.98 µM [inhibitor, full curve, poor fit] | 
4 | Cc1cccc(-n2cc(C(=O)O)c(=O)cc2C)c1 | inconclusive: 5.01 µM [inhibitor, full curve, poor fit] | 
5 | Cc1ccccc1-c1cc(Nc2ccc(F)cc2)ncn1 | inconclusive: 7.08 µM [inhibitor, full curve, poor fit] | 
6 | Cc1ccccc1C1=NC(c2ccc(F)cc2F)ON1 (configuration not stated) | inconclusive: 39.8 µM [inhibitor, partial curve, poor fit] | 
7 | Cc1[nH]c(=S)c(C#N)c(-c2ccco2)c1C(=O)N(C)C | inconclusive: 22.4 µM [inhibitor, partial curve] | 
8 | COc1ccc(CCNc2nc(-c3ccccc3)cs2)cc1OC | inconclusive: 112 µM [inhibitor, single point] | 
9 | Cc1nn(-c2ccccc2)c(C)c1NC(=O)COc1cc(F)ccc1[N+](=O)[O-] | inconclusive: 100 µM [inhibitor, single point] | 
10 | CCCS(=O)c1ccc2nc(NC(=O)OC)[nH]c2c1 (configuration not stated) | inconclusive: 7.69 µM [inhibitor, partial curve, poor fit] | 
11 | c1ccc2c(c1)Nc1nccnc1S2 | inconclusive: 44.7 µM [inhibitor, partial curve, poor fit] | 
12 | Oc1ccc(-c2[nH]ncc2-c2ccc(Br)cc2)c(O)c1 | inconclusive: 44.7 µM [inhibitor, partial curve, poor fit] | 
13 | CCc1ccc(NC(=S)NCc2cccnc2)cc1 | inconclusive: 100 µM [inhibitor, single point] | 
14 | COc1ccc(CN2CCN(c3ccccc3OC)CC2)cc1OC | inconclusive: 0.398 µM [inhibitor, full curve, poor fit] | 
15 | COc1cc(/C=C/C(=O)OCC(=O)Nc2ccc(S(N)(=O)=O)cc2)ccc1O | inactive | 
16 | COc1ccc(-c2cn3c(n2)sc2cc(C(=O)NCCCN4CCCCC4)ccc23)cc1 | inconclusive: 50.1 µM [inhibitor, partial curve] | 
17 | O=C(OCCN1C(=O)c2ccccc2C1=O)c1cnccn1 | inconclusive: 50.1 µM [inhibitor, partial curve, poor fit] | 
18 | Cc1ccc(CNC(=O)c2oc3ccc(S(=O)(=O)N4CCC5(CC4)OCCO5)cc3c2C)cc1 | inactive | 
19 | O=S(=O)(c1ccc(Cl)cc1)N1CCCC(c2nc(-c3ccc(F)cc3)no2)C1 (configuration not stated) | inactive | 
20 | O=C1C(Cl)=C(NCCCO)C(=O)c2ccccc21 | inactive | 
21 | CN1CC(=O)N(c2ccc(Cl)cc2)Cc2c(NCC3CC3)ncnc21 | inconclusive: 39.8 µM [inhibitor, full curve, poor fit] | 
22 | O=C(Nc1ccc(Nc2ccccc2)cc1)c1ccc(Cl)cc1 | inconclusive: 126 µM [inhibitor, single point] | 
23 | COc1ccc(-c2noc(COC(=O)C3=CN(C)S(=O)(=O)N=C3C)n2)cc1 | inactive | 

Row | Structure (SMILES) | Potency | activity change, negative = inhibition
24 | CSCC[C@H](Nc1ncnc2sc3c(c12)CCCC3)C(=O)O | inconclusive: 6.31 µM [inhibitor, full curve, poor fit] | 
25 | CCOc1ccccc1N1CCN(Cc2ccco2)CC1 | inconclusive: 0.398 µM [inhibitor, full curve, poor fit] | 
26 | CCCCc1ccc(NC(=O)C23CC4CC(CC(C4)C2)C3)cc1 | inconclusive: 56.2 µM [inhibitor, single point] | 
27 | CC(C)(C)Cc1c(-c2ccc(Br)cc2)nc2ccc(Br)cn12 | inconclusive: 35.5 µM [inhibitor, partial curve, poor fit] | 
28 | Cc1ccc(N2CCN(C(=O)c3ccccc3Br)CC2)c(C)c1 | inconclusive: 112 µM [inhibitor, single point] | 
29 | CC(=O)N1c2ccc(S(=O)(=O)NCCC(=O)N(C)Cc3ccco3)cc2CC1C (configuration not stated) | inactive | 
30 | Cc1cccc(CN2CCCN(S(=O)(=O)c3ccccc3)CCC(=O)NCC2)c1 | inactive | 
31 | CCOc1ccc(C2C(C(=O)Nc3ccccc3OC)=C(C)Nc3c(C(=O)Nc4cccc(C)c4)cnn32)cc1 (configuration not stated) | inconclusive: 126 µM [inhibitor, partial curve, poor fit] | 
32 | CCN(CC)S(=O)(=O)c1ccc(S(=O)(=O)N2CCCC2C(=O)O)cc1 (configuration not stated) | inconclusive: 63.1 µM [inhibitor, partial curve, poor fit] | 
33 | C#CCN(C[C@H]1[C@H](OC(=O)Nc2cccs2)[C@H](OC(=O)Nc2cccs2)C[C@H]2C(=O)N(c3ccccc3)C(=O)[C@@H]12)S(=O)(=O)c1ccc(C)cc1 | inconclusive: 35.5 µM [inhibitor, partial curve] | 
34 | CC(C)(Sc1ccc(CCN(CCCCC2CCCCC2)C(=O)NC2CCCCC2)cc1)C(=O)O | inconclusive: 17.2 nM [inhibitor, full curve, poor fit] and inconclusive: 44.7 µM [inhibitor, partial curve, poor fit] | 
35 | C/C(=N/N=C(/C)c1cccs1)c1cccs1 | inconclusive: 31.6 µM [inhibitor, single point] | 
36 | NC1C=CC=C(C(=O)O)C1 (configuration not stated) | inactive | 
37 | CCOC(=O)c1c(N)sc2c1CCC(C)C2 (configuration not stated) | inconclusive: 31.6 µM [inhibitor, partial curve, poor fit] | 
38 | S=C(NCc1ccccc1)Nc1ccc(Br)cc1 | inconclusive: 44.7 µM [inhibitor, partial curve, poor fit] | 
39 | O=C(CSc1nnnn1Cc1ccccc1)N1N=C(c2cc3ccccc3o2)CC1c1ccco1 (configuration not stated) | inactive | 
40 | CCOC(=O)C(=O)N(C)c1c(CC)nc2c(OCc3cccc(Cl)c3)cccn12 | inconclusive: 7.94 µM [inhibitor, full curve] | 
41 | C=CCn1c(=N)n(CC(=O)c2ccc(Br)cc2)c2ccccc21 | inactive | 
42 | COC(=O)C1=C(C)N(Cc2ccc(OC)cc2)C(=O)/C1=C\c1ccco1 | inconclusive: 44.7 µM [inhibitor, partial curve, poor fit] | 
43 | OC1(c2cccc(C(F)(F)F)c2)CCN(CCN2CCCCC2)CC1 | inconclusive: 89.1 µM [inhibitor, single point] | 
44 | CC(C)CN(C(=O)CSc1nc2ccccc2c(=O)n1C)C1CCS(=O)(=O)C1 (configuration not stated) | inconclusive: 39.8 µM [inhibitor, partial curve, poor fit] | 
45 | CCOC(=O)c1c(C)[nH]c(C(=O)OCC(=O)N(CC(C)C)c2c(N)n(Cc3ccccc3)c(=O)[nH]c2=O)c1C | inactive | 
46 | CC(C)CC(N)c1cn([C@@H](CCC(=O)O)C(=O)N2CCNCC2)nn1 (some centres not stated) | inactive | 

Twelve of these compounds, set out differently:
Row	Structure (SMILES)	Potency	activity change, negative = inhibition
31	CCOc1ccc(C2C(C(=O)Nc3ccccc3OC)=C(C)Nc3c(C(=O)Nc4cccc(C)c4)cnn32)cc1 (configuration not stated)	inconclusive: 126 µM [inhibitor, partial curve, poor fit]	
32	CCN(CC)S(=O)(=O)c1ccc(S(=O)(=O)N2CCCC2C(=O)O)cc1 (configuration not stated)	inconclusive: 63.1 µM [inhibitor, partial curve, poor fit]	
33	C#CCN(C[C@H]1[C@H](OC(=O)Nc2cccs2)[C@H](OC(=O)Nc2cccs2)C[C@H]2C(=O)N(c3ccccc3)C(=O)[C@@H]12)S(=O)(=O)c1ccc(C)cc1	inconclusive: 35.5 µM [inhibitor, partial curve]	
34	CC(C)(Sc1ccc(CCN(CCCCC2CCCCC2)C(=O)NC2CCCCC2)cc1)C(=O)O	inconclusive: 17.2 nM [inhibitor, full curve, poor fit] and inconclusive: 44.7 µM [inhibitor, partial curve, poor fit]	
35	C/C(=N/N=C(/C)c1cccs1)c1cccs1	inconclusive: 31.6 µM [inhibitor, single point]	
36	NC1C=CC=C(C(=O)O)C1 (configuration not stated)	inactive	
37	CCOC(=O)c1c(N)sc2c1CCC(C)C2 (configuration not stated)	inconclusive: 31.6 µM [inhibitor, partial curve, poor fit]	
38	S=C(NCc1ccccc1)Nc1ccc(Br)cc1	inconclusive: 44.7 µM [inhibitor, partial curve, poor fit]	
39	O=C(CSc1nnnn1Cc1ccccc1)N1N=C(c2cc3ccccc3o2)CC1c1ccco1 (configuration not stated)	inactive	
40	CCOC(=O)C(=O)N(C)c1c(CC)nc2c(OCc3cccc(Cl)c3)cccn12	inconclusive: 7.94 µM [inhibitor, full curve]	
41	C=CCn1c(=N)n(CC(=O)c2ccc(Br)cc2)c2ccccc21	inactive	
42	COC(=O)C1=C(C)N(Cc2ccc(OC)cc2)C(=O)/C1=C\c1ccco1	inconclusive: 44.7 µM [inhibitor, partial curve, poor fit]	

The results go on.

Row | Structure (SMILES) | Potency | activity change, negative = inhibition
47 | CC1(C(=O)NS(=O)(=O)c2ccc(F)cc2F)CCN1C(=O)C1(c2ccc(Cl)cc2)CCC1 (configuration not stated) | inconclusive: 89.1 µM [inhibitor, single point] | 
48 | Cc1cccc(C)c1NS(=O)(=O)c1ccc2c(c1)[C@H]1C=CC[C@H]1[C@@H](c1ccc(Cl)cc1)N2 | inconclusive: 17.8 µM [inhibitor, partial curve, poor fit] | 
49 | Cc1cc(C)c2c(N)c(S(=O)(=O)Cc3ccccc3)sc2n1 | inconclusive: 31.6 µM [inhibitor, partial curve] | 
50 | Cn1cc(C(=O)c2cccc(Cl)c2)cc1/C=N\O | inactive | 
51 | C[C@@H]1C(=O)O[C@H]2[C@H]1CC[C@@]1(C)Cc3sc(NC(=O)CC(C)(C)C)nc3[C@@H](C)[C@H]21 | inactive | 
52 | CCc1cc2c(N3CCCCC3)ncnc2s1 | active: 28.2 µM | 
53 | O=C1C(=O)N(C/C=C/c2ccccc2)c2ccccc21 | inconclusive: 112 µM [inhibitor, single point] | 
54 | COCC1CN(C(C)=O)CC12CCN(Cc1cc(Cl)ccc1F)CC2 (configuration not stated) | inconclusive: 79.4 µM [inhibitor, single point] | 
55 | Oc1ccccc1CN1CCN(C(O)(c2ccccc2)c2ccccc2)CC1 | inconclusive: 10 µM [inhibitor, full curve, poor fit] | 
56 | Cc1ccc(/C=C/C(=O)NCc2cccs2)cc1 | inactive | 
57 | O=C(CCCN1C(=O)/C(=C/c2ccccc2Cl)SC1=S)NNC(=O)c1ccc(Cl)cc1 | inactive | 
58 | Cn1c(SCc2cccnc2)nc2c(c1=O)SCC2 | inactive | 
59 | COCCCNCCOc1ccccc1-c1ccccc1 | inconclusive: 1.26 µM [inhibitor, full curve, poor fit] | 
60 | O=C1Cc2ccccc2Sc2cc(OCCCN3CCCCC3)ccc21 | inconclusive: 20 µM [inhibitor, full curve, poor fit] | 
61 | Cc1c(C(=O)Nc2ccc3oc(-c4cncc(Br)c4)nc3c2)cccc1[N+](=O)[O-] | inactive | 
62 | CC(C)CNCC(=O)N1c2ccccc2Sc2ccccc21 | inconclusive: 5.62 µM [inhibitor, full curve, poor fit] | 
63 | CCCCC[C@H]1CN(CCCC)C(=O)[C@@H]1CC(=O)NCc1ccc(OC)cc1 | inactive | 
64 | Cc1ccc(NC2=NC(c3ccc(F)cc3)n3c(nc(C)cc3=O)N2)c(C)c1 (configuration not stated) |  | inconclusive: -36.1% [inhibitor]
65 | CSc1ccc2c(c1)N(CCC1CCCCN1C)c1ccccc1S2 (configuration not stated) | inconclusive: 100 µM [inhibitor, single point] | 
66 | COc1ccc(C(=O)/C=C/c2ccccc2C(F)(F)F)c(OC)c1 | inactive | 
67 | COC(=O)c1ccc(OCC(O)CNC2CCCC2)cc1 (configuration not stated) | inconclusive: 56.2 µM [inhibitor, partial curve, poor fit] | 
